Results on 19 compounds are retold here after the supplement of paper PMC3682954.

The assay relates to RAW 264.7. In words: HMGB1-induced TNF-alpha production relative to HMGB1-stimulated control; higher = more TNF-alpha secretion (less inhibition). As to conditions: stimulus: HMGB1 5 ug/ml, 18 h.
Setting [1] is: compound concentration: 1 ug/ml.

Structures can show the parent of a compound that is named as a salt. ± gives the standard deviation of the averaged measurements. This is one part of the list. Single values are uncertain, as repeats are few or missing.

Regarding `COc1ccc2oc(-c3ccc(O)cc3)cc(=O)c2c1`, the “HMGB1-induced TNF-alpha production” value under setting [1] came out at 44.7%.
Turning to `CCOC(=O)CCC(=O)O[C@H]1[C@H](O[C@@H]2[C@@H](C)[C@H](O[C@H]3C[C@@](C)(OC)[C@@H](O)[C@H](C)O3)[C@@H](C)C(=O)O[C@H](CC)[C@@](C)(O)[C@H](O)[C@@H](C)C(=O)[C@H](C)C[C@@]2(C)O)O[C@H](C)C[C@@H]1N(C)C`, the “HMGB1-induced TNF-alpha production” value (compound concentration: 3 uM) worked out at 80.5%.
In the case of `CCOC(=O)CCC(=O)O[C@H]1[C@H](O[C@@H]2[C@@H](C)[C@H](O[C@H]3C[C@@](C)(OC)[C@@H](O)[C@H](C)O3)[C@@H](C)C(=O)O[C@H](CC)[C@@](C)(O)[C@H](O)[C@@H](C)C(=O)[C@H](C)C[C@@]2(C)O)O[C@H](C)C[C@@H]1N(C)C` [erythromycin ethylsuccinate], under setting [1], the “HMGB1-induced TNF-alpha production” value is 83.3%.
In the case of `Nc1ncnc2nc(-c3ccc(N4CCOCC4)nc3)cc(-c3cccc(Br)c3)c12` [ABT-702 dihydrochloride], the “HMGB1-induced TNF-alpha production” value (compound concentration: 3 uM) amounted to 118%.
With `C[C@]12C=CC(=O)C=C1CC[C@@H]1[C@@H]2C(=O)C[C@@]2(C)[C@H]1CC[C@]2(O)C(=O)CO`, the “HMGB1-induced TNF-alpha production” value (compound concentration: 3 uM) stood at 74.9%.
Same read-out and setting: under `C[C@]12C=CC(=O)C=C1CC[C@@H]1[C@@H]2C(=O)C[C@@]2(C)[C@H]1CC[C@]2(O)C(=O)CO` [Prednisone] stands 85 ± 8.9%; under `C[C@]12C=CC(=O)C=C1CC[C@@H]1C2=CC[C@]2(C)[C@@H](C(=O)CN3CCN(c4cc(N5CCCC5)nc(N5CCCC5)n4)CC3)CC[C@@H]12`, 78%.
Same read-out and setting: the same measure for `O=c1ccc2c(OCCCCc3ccccc3)c3ccoc3cc2o1` [Psora-4]: 103%; for `NC(=O)c1cc[n+](CC2=C(C(=O)O)N3C(=O)[C@@H](NC(=O)C(c4ccccc4)S(=O)(=O)[O-])[C@H]3SC2)cc1` (some centres undefined) [Cefsulodin sodium salt hydrate]: 81.7%.
Still for that read-out and setting: the same measure for `CCn1cc(C(=O)O)c(=O)c2cc(F)c(N3CCNC(C)C3)c(F)c21` (centres undefined) [Lomefloxacin]: 101%; for `CCn1cc(C(=O)O)c(=O)c2cc(F)c(N3CCNC(C)C3)c(F)c21` (centres undefined) [Lomefloxacin hydrochloride]: 97.9 ± 15%.
Turning to `CCn1cc(C(=O)O)c(=O)c2cc(F)c(N3CCNC(C)C3)c(F)c21` (centres undefined), the “HMGB1-induced TNF-alpha production” value (compound concentration: 3 uM) stood at 86.7%.
As to `COc1cc(C)nc(-n2nc(C)cc2OC)n1`, the “HMGB1-induced TNF-alpha production” value (compound concentration: 3 uM) is 104%.
Still for that read-out and setting: under `COc1cc(C)nc(-n2nc(C)cc2OC)n1` [Epirizole] stands 72.5%; under `CS(=O)(=O)Nc1ccc([N+](=O)[O-])cc1Oc1ccccc1`, 81%; under `CS(=O)(=O)Nc1ccc([N+](=O)[O-])cc1Oc1ccccc1` [Nimesulide], 102 ± 23%.
`O=C(O)C1=CCNCC1` [Isoguvacine hydrochloride]: for the setting “compound concentration: 3 uM”, the “HMGB1-induced TNF-alpha production” value turned out to be 82.5%.
The same measure, in the same setting: the same measure for `CNC(=C[N+](=O)[O-])NCCSCc1csc(CN(C)C)n1` [Nizatidine]: 112%; for `CNC(=C[N+](=O)[O-])NCCSCc1csc(CN(C)C)n1`: 96.4 ± 13%.
